Experimental data from PubChem BioAssay AID248 (DTP/NCI, 2004).
The list shows only some results of the screen, not a fair sample: it is rich in T/C values a quarter to a half above the control, in often repeated tests (any T/C) and in doses without a T/C. Further doses and runs are listed elsewhere. T/C gives the treated animals as a percentage of the vehicle group. Some doses have a count of surviving animals in place of a T/C: the source holds a T/C of zero for them, seemingly a mark for toxic or unscored doses. Some survivor counts are full or nearly so, which does not show that the dose was tolerated: the source hardly ever lists a survival T/C far under the control, and the zero likely stands for such cases as well. Survivors were counted at the toxicity check, usually on the fifth day, unless a day is given; later deaths do not show. Schedules are NCI's codes, read here as Q, the interval in days (D) or hours (H), X, the number of doses. Some schedules carry Z or #; the key to these is not given. Some doses were run more than once; the results are listed from low to high. For survival time, this PubChem deposit counts one and a half times the control or more as active, and values a quarter to a half above the control carry no call in these data; other NCI protocols may use other cut-offs. Some T/C values are followed by the survivors on the day toxicity was checked, most often the fifth; where none is given, no animal had died by that day.

System: L1210 leukemia ip in BDF1 mice, survival T/C
Assay: NCI In Vivo Anticancer Drug Screen. Data for tumor model L1210 Leukemia (intraperitoneal) in B6D2F1 (BDF1) mice
Conditions: T/C endpoint: mean survival time, higher T/C = longer survival
[1] = dose: 100.0 mg/kg/injection, schedule: Q04DX002 (ip), vehicle: saline
[2] = dose: 200.0 mg/kg/injection, schedule: Q01DX001 (ip), vehicle: saline
[3] = dose: 200.0 mg/kg/injection, schedule: Q04DX002 (ip), vehicle: saline
[4] = dose: 200.0 mg/kg/injection, schedule: Q04DX003 (ip), vehicle: saline
[5] = dose: 400.0 mg/kg/injection, schedule: Q04DX002 (ip), vehicle: saline
[6] = dose: 400.0 mg/kg/injection, schedule: Q04DX003 (ip), vehicle: Klucel (hydroxypropylcellulose) (HPC)
[7] = dose: 200.0 mg/kg/injection, schedule: Q01DX009 (ip), vehicle: Klucel (hydroxypropylcellulose) (HPC)
[8] = dose: 400.0 mg/kg/injection, schedule: Q01DX009 (ip), vehicle: Klucel (hydroxypropylcellulose) (HPC)
[9] = dose: 50.0 mg/kg/injection, schedule: Q04DX003 (ip), vehicle: saline
[10] = dose: 100.0 mg/kg/injection, schedule: Q04DX003 (ip), vehicle: saline
[11] = dose: 400.0 mg/kg/injection, schedule: Q04DX003 (ip), vehicle: saline
[12] = dose: 400.0 mg/kg/injection, schedule: Q01DX009 (ip), vehicle: saline with Tween-80
[13] = dose: 100.0 mg/kg/injection, schedule: Q01DX009 (ip), vehicle: Klucel (hydroxypropylcellulose) (HPC)
[14] = dose: 400.0 mg/kg/injection, schedule: Q01DX001 (ip), vehicle: saline

`O/C=C(\Cl)CCl` was tested, and the T/C [1] was 100, 103, 104, 113 % of control, the survivor count [2] was 2 of 6 and the survivor count (dose: 200.0 mg/kg/injection, schedule: Q01DX009 (ip), vehicle: saline) was 1 of 6 and 1 of 3. The survivor count [3] was 0 of 3, 1 of 6, 1 of 3, 3 of 6, the survivor count [4] was 2 of 6 and the survivor count [5] was 0 of 3 and 0 of 6.

In the case of `O=[As](O)(O)Cc1cccc(F)c1`, the survivor count (dose: 100.0 mg/kg/injection, schedule: Q04DX003 (ip), vehicle: Klucel (hydroxypropylcellulose) (HPC)) was 2 of 6, the survivor count (dose: 200.0 mg/kg/injection, schedule: Q04DX003 (ip), vehicle: Klucel (hydroxypropylcellulose) (HPC)) was 5 of 6 and the survivor count [6] was 2 of 6.

In the case of `O=[N+]([O-])c1ccc(S(=O)C2CCCCC2Cl)c([N+](=O)[O-])c1` (centres undefined), the survivor count [7] was 2 of 6 and the survivor count [8] was 0 of 6.

With `CC(=O)Nc1ccc(S(=O)(=O)c2ccc(N)cc2)cc1` the T/C (dose: 50.0 mg/kg/injection, schedule: Q04DX002 (ip), vehicle: saline with Tween-80) was 131 % of control.

For `CC(=O)OCC1OC(O)C(NC(=O)C(F)(F)F)C(OC(C)=O)C1OC(C)=O` (centres undefined), the survivor count [9] was 2 of 6, the survivor count [10] was 0 of 6 and the survivor count [4] was 0 of 6. The survivor count [11] was 0 of 6.

In the case of `CCCCC(=O)OCC1OC(n2cnc3c(=S)nc[nH]c32)C(OC(=O)CCCC)C1OC(=O)CCCC` (centres undefined), the T/C (dose: 100.0 mg/kg/injection, schedule: Q01DX Z (ip), vehicle: carboxymethylcellulose (CMC)) was 146 % of control, the T/C (dose: 200.0 mg/kg/injection, schedule: Q01DX015 (ip), vehicle: carboxymethylcellulose (CMC)) was 131 % of control and the survivor count (dose: 400.0 mg/kg/injection, schedule: Q01DX015 (ip), vehicle: carboxymethylcellulose (CMC)) was 4 of 6. For the same compound, the survivor count (dose: 800.0 mg/kg/injection, schedule: Q01DX015 (ip), vehicle: carboxymethylcellulose (CMC)) was 0 of 6 and the survivor count (dose: 800.0 mg/kg/injection, schedule: Q01DX Z (ip), vehicle: carboxymethylcellulose (CMC)) was 4 of 6.

With `COc1ccc(CC(C)=O)cc1` the survivor count [9] was 6 of 6, the survivor count [10] was 6 of 6 and the survivor count [4] was 6 of 6.

With `CCc1csc(=S)[nH]1` the survivor count [6] was 1 of 6.

For `CCCCCCCCCCCCCCC1=NCCN1`, the survivor count (dose: 75.0 mg/kg/injection, schedule: Q01DX001 (ip), vehicle: acetone) was 2 of 6, the survivor count (dose: 150.0 mg/kg/injection, schedule: Q01DX001 (ip), vehicle: acetone) was 0 of 6 and the survivor count (dose: 300.0 mg/kg/injection, schedule: Q01DX001 (ip), vehicle: acetone) was 0 of 6.

For `CC1=C(C)CC(C(Cl)(Cl)Cl)C([N+](=O)[O-])C1` (centres undefined), the survivor count (dose: 200.0 mg/kg/injection, schedule: Q01DX009 (ip), vehicle: saline with Tween-80) was 3 of 6 and the survivor count [12] was 0 of 6.

In the case of `C[N+](C)(C)CCCC[N+](C)(C)C`, the survivor count (dose: 400.0 mg/kg/injection, schedule: Q01DX009 (ip), vehicle: saline) was 1 of 6 and the survivor count [11] was 4 of 6.

In the case of `c1cc[c]([Sn]([c]2ccccc2)([c]2ccccc2)[n]2cnc3cncnc32)cc1`, the T/C (dose: 20.0 mg/kg/injection, schedule: Q01DX001 (ip), vehicle: other) was 125 % of control [4 of 6 alive], the survivor count (dose: 40.0 mg/kg/injection, schedule: Q01DX001 (ip), vehicle: other) was 1 of 6 and the survivor count (dose: 80.0 mg/kg/injection, schedule: Q01DX001 (ip), vehicle: other) was 0 of 6. The survivor count (dose: 100.0 mg/kg/injection, schedule: Q01DX001 (ip), vehicle: other) was 0 of 6, the survivor count (dose: 200.0 mg/kg/injection, schedule: Q01DX001 (ip), vehicle: other) was 0 of 6 and the survivor count (dose: 400.0 mg/kg/injection, schedule: Q01DX001 (ip), vehicle: other) was 1 of 6.

In the case of `CCOC(=O)C[P+](c1ccc(OC)cc1)(c1ccc(OC)cc1)c1ccc(OC)cc1`, the survivor count (dose: 15.0 mg/kg/injection, schedule: Q01DX001 (ip), vehicle: carboxymethylcellulose (CMC)) was 6 of 6 and the survivor count (dose: 60.0 mg/kg/injection, schedule: Q01DX001 (ip), vehicle: carboxymethylcellulose (CMC)) was 2 of 6.

`COc1ccc2nc3cc(Cl)ccc3c(N)c2c1` was tested, and the survivor count (dose: 20.0 mg/kg/injection, schedule: Q01DX009 (ip), vehicle: Klucel (hydroxypropylcellulose) (HPC)) was 4 of 6, the survivor count (dose: 40.0 mg/kg/injection, schedule: Q01DX009 (ip), vehicle: Klucel (hydroxypropylcellulose) (HPC)) was 0 of 6 and the survivor count (dose: 80.0 mg/kg/injection, schedule: Q01DX009 (ip), vehicle: Klucel (hydroxypropylcellulose) (HPC)) was 5 of 6. For the same compound, the survivor count [13] was 0 of 6, the survivor count [7] was 0 of 6 and the survivor count [8] was 0 of 6.

For `Cc1cc(C)nc(NC(=O)Nc2ccccc2)c1`, the survivor count [7] was 6 of 6.

For `CCOC(=O)c1c(Cl)c(Cl)c(Cl)c(Cl)c1C(=O)O`, the survivor count [12] was 2 of 6.

`CCCCCCCCCCCCCCCC(=O)Nc1cccc(C)c1C` was tested, and the survivor count (dose: 400.0 mg/kg/injection, schedule: Q04DX002 (ip), vehicle: saline with Tween-80) was 3 of 3.

With `O=C(Nc1ccccc1F)c1ccc(Cl)c(Cl)c1` the survivor count [13] was 6 of 6.

For `O=C(Nc1cccc(Cl)c1)OCC#CCN1CCCC1`, the T/C (dose: 20.0 mg/kg/injection, schedule: Q01DX001 (ip), vehicle: saline) was 126 % of control.

With `O=C1C(=O)c2ccccc2C(O)=C1CCCc1ccc(OCc2ccccc2)cc1` the survivor count (dose: 25.0 mg/kg/injection, schedule: Q01DX009 (ip), vehicle: saline with Tween-80) was 6 of 6 and the survivor count (dose: 50.0 mg/kg/injection, schedule: Q01DX009 (ip), vehicle: saline with Tween-80) was 5 of 6.

With `CCOC1OC(C2COC(=O)O2)C(O)C1O` (centres undefined) the T/C [5] was 127 % of control.

In the case of `CCOC(=N)/C=C/c1ccccc1`, the survivor count (dose: 100.0 mg/kg/injection, schedule: Q01DX001 (ip), vehicle: saline) was 0 of 6, the survivor count [2] was 0 of 6 and the survivor count [14] was 0 of 6.

With `CCOC(=O)/C(=C\c1ccccc1)P(=O)(OCC)c1ccccc1` (centres undefined) the survivor count [13] was 3 of 6, the survivor count [7] was 1 of 6 and the survivor count [8] was 0 of 6. The survivor count [6] was 3 of 6.

In the case of `O=C(O)c1cc(C(=O)O)c(C(=O)O)cc1C(=O)O` (tested in a mixture with another compound), the survivor count [2] was 0 of 4 and the survivor count [14] was 0 of 4.

`O=C(COc1ccc(Cl)cc1Cl)Nc1cccnc1` was tested, and the survivor count (dose: 400.0 mg/kg/injection, schedule: Q04DX003 (ip), vehicle: saline with Tween-80) was 1 of 6.

In the case of `CC(=O)N(C)C1=C(Sc2ccc(C)cc2)C(=O)c2ccccc2C1=O`, the survivor count (dose: 75.0 mg/kg/injection, schedule: Q01DX001 (ip), vehicle: carboxymethylcellulose (CMC)) was 6 of 6 and the survivor count (dose: 300.0 mg/kg/injection, schedule: Q01DX001 (ip), vehicle: carboxymethylcellulose (CMC)) was 4 of 6.

In the case of `COc1ccc(NCNc2ccc(OC)cc2)cc1`, the survivor count [7] was 5 of 6 and the survivor count [6] was 0 of 6.

For `CCC(C#N)C1=CCCCCC1` (centres undefined), the survivor count (dose: 50.0 mg/kg/injection, schedule: Q04DX003 (ip), vehicle: saline with Tween-80) was 2 of 6.

With `CC1=CC(C(=O)O)P(C)(=O)C1` (centres undefined) the survivor count (dose: 200.0 mg/kg/injection, schedule: Q04DX002 (ip), vehicle: saline with Tween-80) was 3 of 3.

With `C=C1C(=O)OC2CC(C)C3CC(=O)C(C)=C3C(O)C12` (centres undefined) the survivor count (dose: 100.0 mg/kg/injection, schedule: Q01DX009 (ip), vehicle: saline) was 1 of 3, the survivor count [1] was 1 of 3 and the survivor count [3] was 0 of 3. For the same compound, the survivor count [5] was 0 of 3.
